Measurements published in patent US9107964B2, “Radioactive fluorine-labeled compound” (NIHON MEDI-PHYSICS CO., LTD., priority 2011, dated 2015).
Some of these results come from one statement about several compounds together.

tested on: hypoxic region of EMT6 tumor (pimonidazole-positive site); experiment: Localization of accumulation within tumor by autoradiography versus pimonidazole immunohistochemical staining; type: in vivo, mouse (Balb/c nu/nu); conditions: autoradiography and immunohistochemical staining of the same tumor section
Experimental: In order to evaluate whether or not the compound related to the present invention could visualize a hypoxic region of a tumor, the following experiment was carried out using compounds 1 to 3 and [^18F]FMISO.
Localization of accumulation of each of the labeled compounds within a tumor was confirmed by autoradiography. After PET imaging of a tumor-bearing model mouse prepared by the method of […] was completed, it was sacrificed by blood-letting by cardiocentesis, immediately thereafter the tumor was sampled, and tissue sections (thickness: 10 μm) were prepared using a cryostat (model: CM3050, manufactured by Leica). […] After exposing an imaging plate to this tumor tissue section for 8 to 10 hours, an image was captured using a bioimaging analyzer (model: BAS-2500, manufactured by FUJIFILM). The image thus captured was subjected to image analysis using image analysis software.
Separately, as a method for confirming a hypoxic region within a tumor, the same section after decay of radioactivity was subjected to immunohistochemical staining using pimonidazole that is a hypoxic marker, by the following procedure. After fixation and activation of the tumor tissue section, a rabbit polyclonal anti-pimonidazole antibody (obtained from: Hypoxyprobe, Inc., 1:200) as a primary antibody and a biotin-labeled anti-rabbit antiserum as a secondary antibody, which reacts with the primary antibody, were reacted with the tumor tissue section, and subsequently HRP (horseradish peroxidase) activity was detected by a color reaction with DAB (3,3′-diaminobenzidine) as a substrate using HRP-labeled streptavidin, which reacts with the secondary antibody, thus identifying a hypoxic region of the tumor tissue section. Furthermore, nuclear counterstaining, which stains the cell nucleus, employed Mayer's hematoxylin. […]

Structure (SMILES)	Coincidence of accumulation site with localization of pimonidazole (hypoxic marker)
O=[N+]([O-])c1nc(CO)cn1CC(CO)(CO)C[18F] [Compound 2, 1-(2,2-Dihydroxymethyl-3-[^18F]fluoropropyl)-4-hydroxymethyl-2-nitroimidazole]	coincided visually
O=[N+]([O-])c1nccn1CCC(CO)(CO)C[18F] [Compound 3, 1-(3,3-Dihydroxymethyl-4-[^18F]fluorobutyl)-2-nitroimidazole]	coincided visually
O=[N+]([O-])c1nccn1CC(CO)(CO)C[18F] [Compound 1, 1-(2,2-Dihydroxymethyl-3-[^18F]fluoropropyl)-2-nitroimidazole]	coincided visually
